Measured values as given in PubChem BioAssay AID504834 (National Center for Advancing Translational Sciences (NCATS), 2011).
Out of some 320,000 compounds screened, about 22,000 (6.9%) were called active. Inconclusive results, whose numbers are uncertain, are shown with a selection of clear calls. Calls follow the shape of the dose curve; as a rule, active = well fitted inhibition curve with a large enough effect; inconclusive = small, poorly fitted or top-dose-only effect, or another doubt; inactive = no such curve, though single readings can be large or run the other way. A potency beside an inconclusive call is a rough fit, not a confirmed value.

Test: Primary qHTS for delayed death inhibitors of the malarial parasite plastid, 96 hour incubation
Details: P. falciparum luciferase reporter growth; series mostly up to 28.7 µM
How it was run: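 96 h incubation, 37 C, 5% CO2, of luciferase-reporter P. falciparum-infected RBCs (2% hematocrit, 0.05% parasitemia final) with test compounds; endpoint luminescence.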
Potency is read from the fitted curve at half-maximal effect.

Compound | Potency
CCN(CC)CCN=C1CCCc2ccccc2N1 | inconclusive: 10.4 µM [inhibitor, single point]
CCOC(=O)C1=C(C)NC(C)=C(C(=O)OCC)C1/C=C/c1ccccc1 | inconclusive: 2.08 µM [inhibitor, full curve]
COc1ccc(Nc2nc(-c3ccc(OC)cc3)c(CCC(=O)O)s2)cc1 | inactive
COc1ccccc1[C@@H]1C(c2cccc(Cl)c2)=NN(c2ccccc2)[C@H]1C(=O)N1CCOC1=O | active: 10.4 µM
CCOCCCn1c(=NC(=O)c2cccs2)c(C#N)cc2c(=O)n3ccccc3nc21 | active: 10.4 µM
CCOc1ccccc1NC(=O)CN1C(=O)COc2ccc(Cl)cc21 | inconclusive: 18.5 µM [inhibitor, single point]
O=C(O)CNC(=S)N(Cc1ccccc1)Cc1cccs1 | inconclusive: 0.0185 µM [inhibitor, full curve, poor fit]
O=C(c1cccs1)N1CCC(Cc2ccccc2)CC1 | inactive
O=C(N[C@@H](Cc1c[nH]c2ccccc12)C(=O)O)C1CCN(S(=O)(=O)c2ccc(Cl)cc2)CC1 | inactive
Cn1c(=O)oc2cc(S(=O)(=O)N3CCCC3)ccc21 | inconclusive: 18.5 µM [inhibitor, single point]
Cc1nc2ccccn2c1C(=O)NNC(=S)Nc1ccc(Cl)cc1 | inactive
O=C1CCN(C(=O)/C=C/c2ccccc2)c2ccccc21 | inconclusive: 18.5 µM [inhibitor, single point]
O=S(=O)(c1ccc(OCC(O)CN2CCC(Cc3ccccc3)CC2)cc1)N1CCOCC1 (stereo not given) | inconclusive: 18.5 µM [inhibitor, partial curve, poor fit]
O=C1Nc2ccc(Br)cc2C1=C1CCCCC1 | inconclusive: 11.7 µM [inhibitor, single point]
Cc1ccc(-c2cc(=O)[nH][nH]2)c(C)c1 | inconclusive: 14.7 µM [inhibitor, partial curve, poor fit]
CCn1c(SCC(=O)Nc2ccccc2-c2ccccc2)nnc1-c1ccoc1C | active: 11.7 µM
O=C(Cc1cccc2ccccc12)Nc1ccc(OC(F)F)c(Cl)c1 | inconclusive: 13.1 µM [inhibitor, single point]
COc1cccc(-c2nc(N3CCCC3)c3ccccc3n2)c1O | inactive
COCCN(C(=O)CCC(=O)Nc1nccs1)C(C(=O)NCCC(C)C)c1ccc(OC)cc1 (stereo not given) | inactive
O=S(=O)(Nc1ccc(Cc2ccncc2)cc1)c1ccc(Br)s1 | inconclusive: 1.04 µM [inhibitor, partial curve, poor fit]
CC(=O)N1CCN(Cc2nc3cc([N+](=O)[O-])ccc3n2C)CC1 | inactive
Cc1ccc(-c2nnc(N3CCN(C(=O)c4cccs4)CC3)c3ccccc23)cc1 | active: 4.65 µM
CC(C)N1C(=O)CCC1C(=O)N1CCCc2ccccc21 (stereo not given) | inconclusive: 5.22 µM [inhibitor, partial curve]

Compound | Potency
Cn1c(N)c(C(=O)Nc2c(Cl)cccc2Cl)sc1=S | inconclusive: 4.15 µM [inhibitor, partial curve]
O=C1/C(=C/c2ccc(F)c(F)c2)CSc2sccc21 | inconclusive: 18.5 µM [inhibitor, partial curve, poor fit]
CCOc1ccccc1C(=O)N/N=C/c1cccc2cccnc12 | inconclusive: 6.57 µM [inhibitor, partial curve, poor fit]
O=C(NC1CCCCC1)C(c1ccc(O)cc1)N(C(=O)c1cnccn1)c1cccc(F)c1 (stereo not given) | inactive
CCOC(=O)c1ccc(NC(=O)Nc2c(C)nn(C)c2C)cc1 | active: 11.7 µM
CC(C)C(C(=O)C=[N+]=[N-])N1C(=O)c2ccccc2C1=O (stereo not given) | inconclusive: 18.5 µM [inhibitor, single point]
COc1ccccc1-c1cc(-c2ccccc2)nc(SCC(=O)O)c1C#N | inconclusive: 18.5 µM [inhibitor, single point]
C/C(=N\NC(=O)c1ccc(N(C)C)cc1)c1ccc(C)c(C)c1 | inconclusive: 0.131 µM [inhibitor, full curve, poor fit]
O=C(CSc1nnc2scc(-c3ccccc3)n12)NCC1CCCO1 (stereo not given) | inconclusive: 1.85 µM [inhibitor, full curve, poor fit]
Nc1ncc2c(n1)CC(c1ccco1)CC2=O (stereo not given) | inactive
CN(C)CCN(C(=O)C1CCN(S(=O)(=O)c2cccs2)CC1)c1nc2ccccc2s1 | inactive
C=CCNc1nc(N)c(C(=C(C#N)C#N)c2ccc(Br)cc2)s1 | inconclusive: 3.29 µM [inhibitor, partial curve, poor fit]
NS(=O)(=O)c1ccc(CCNC(=O)CSc2nc3ccccc3c(=O)n2CCN2CCOCC2)cc1 | inconclusive: 5.86 µM [inhibitor, partial curve, poor fit]
CCOc1ccc(NS(=O)(=O)c2ccc(OC)c(NC(=O)c3ccc4c(c3)OCCO4)c2)cc1 | inconclusive: 1.04 µM [inhibitor, partial curve, poor fit]
COCCCn1c(SCC(=O)Nc2ccc(NC(=O)c3ccco3)c(OC)c2)nc2ccccc2c1=O | inactive
Cc1ccc(N=C2S/C(=C\c3cn(CC(=O)O)c4ccccc34)C(=O)N2C)cc1 | inconclusive: 18.5 µM [inhibitor, single point]
Cc1cc([N+](=O)[O-])nn1Cc1ccc(C(=O)N/N=C/c2ccccc2)cc1 | inconclusive: 18.5 µM [inhibitor, single point]
O=C(Nc1ccccc1)N1CCC(O)(c2cccc(C(F)(F)F)c2)CC1 | inconclusive: 16.5 µM [inhibitor, partial curve, poor fit]
CC(=O)c1ccc(S(=O)(=O)Oc2ccc(-c3ccc(C(=O)O)cc3)cc2)cc1 | inactive
C=CCOn1c(=O)c(-c2ccc(OCC)cc2)[n+]([O-])c2ccccc21 | inactive
O=C1NC2CCc3nc4ccccc4c(=O)n3C2=Nc2ccccc21 (stereo not given) | active: 11.7 µM
OC1(c2cccnc2)CCN(Cc2nnnn2C2CCCCC2)CC1 | inconclusive: 18.5 µM [inhibitor, single point]

Laid out differently: results already given.

| Compound | Potency |
| --- | --- |
| O=C(O)CNC(=S)N(Cc1ccccc1)Cc1cccs1 | inconclusive: 0.0185 µM [inhibitor, full curve, poor fit] |
| O=C(Cc1cccc2ccccc12)Nc1ccc(OC(F)F)c(Cl)c1 | inconclusive: 13.1 µM [inhibitor, single point] |
| COc1cccc(-c2nc(N3CCCC3)c3ccccc3n2)c1O | inactive |
| Cc1cc([N+](=O)[O-])nn1Cc1ccc(C(=O)N/N=C/c2ccccc2)cc1 | inconclusive: 18.5 µM [inhibitor, single point] |
